Results from the supplement of paper PMC6411743.
± gives the standard deviation of the averaged measurements. The entries are a selection whose mix differs from that of the whole data set. Most entries show no effect beyond the scatter of the controls.

Chains of the proteins cited; added tags and fusions are not shown. Lines headed by an entry give the natural chain unless they say otherwise; changes in a name come on top.
UniProt Q96L50: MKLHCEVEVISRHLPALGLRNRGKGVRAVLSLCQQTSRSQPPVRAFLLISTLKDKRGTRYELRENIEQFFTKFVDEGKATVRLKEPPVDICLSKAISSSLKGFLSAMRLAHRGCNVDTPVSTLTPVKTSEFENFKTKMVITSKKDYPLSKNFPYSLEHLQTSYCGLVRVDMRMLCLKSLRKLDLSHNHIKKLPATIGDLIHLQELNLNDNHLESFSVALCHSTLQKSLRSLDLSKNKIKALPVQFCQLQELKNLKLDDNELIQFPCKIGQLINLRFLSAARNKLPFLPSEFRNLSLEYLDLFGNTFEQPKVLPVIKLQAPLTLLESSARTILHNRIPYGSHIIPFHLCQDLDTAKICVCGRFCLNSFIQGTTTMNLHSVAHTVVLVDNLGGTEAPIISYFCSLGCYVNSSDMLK
UniProt Q96FZ7: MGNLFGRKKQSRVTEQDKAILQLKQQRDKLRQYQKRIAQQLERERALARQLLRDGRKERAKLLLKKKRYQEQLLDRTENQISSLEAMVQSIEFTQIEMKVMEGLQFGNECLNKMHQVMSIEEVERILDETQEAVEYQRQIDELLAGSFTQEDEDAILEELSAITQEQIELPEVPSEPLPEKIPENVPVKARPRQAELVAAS
UniProt Q96B01: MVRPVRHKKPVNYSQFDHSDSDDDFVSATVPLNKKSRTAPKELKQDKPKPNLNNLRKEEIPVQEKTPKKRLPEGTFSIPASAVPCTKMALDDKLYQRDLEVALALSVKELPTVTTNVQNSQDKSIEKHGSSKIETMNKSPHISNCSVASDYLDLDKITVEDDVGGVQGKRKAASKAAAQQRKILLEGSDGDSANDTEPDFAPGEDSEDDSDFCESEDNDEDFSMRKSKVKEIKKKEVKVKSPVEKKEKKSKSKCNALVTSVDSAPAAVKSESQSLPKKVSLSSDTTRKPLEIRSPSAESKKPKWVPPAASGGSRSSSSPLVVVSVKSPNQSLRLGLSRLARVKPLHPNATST
UniProt Q96JB2: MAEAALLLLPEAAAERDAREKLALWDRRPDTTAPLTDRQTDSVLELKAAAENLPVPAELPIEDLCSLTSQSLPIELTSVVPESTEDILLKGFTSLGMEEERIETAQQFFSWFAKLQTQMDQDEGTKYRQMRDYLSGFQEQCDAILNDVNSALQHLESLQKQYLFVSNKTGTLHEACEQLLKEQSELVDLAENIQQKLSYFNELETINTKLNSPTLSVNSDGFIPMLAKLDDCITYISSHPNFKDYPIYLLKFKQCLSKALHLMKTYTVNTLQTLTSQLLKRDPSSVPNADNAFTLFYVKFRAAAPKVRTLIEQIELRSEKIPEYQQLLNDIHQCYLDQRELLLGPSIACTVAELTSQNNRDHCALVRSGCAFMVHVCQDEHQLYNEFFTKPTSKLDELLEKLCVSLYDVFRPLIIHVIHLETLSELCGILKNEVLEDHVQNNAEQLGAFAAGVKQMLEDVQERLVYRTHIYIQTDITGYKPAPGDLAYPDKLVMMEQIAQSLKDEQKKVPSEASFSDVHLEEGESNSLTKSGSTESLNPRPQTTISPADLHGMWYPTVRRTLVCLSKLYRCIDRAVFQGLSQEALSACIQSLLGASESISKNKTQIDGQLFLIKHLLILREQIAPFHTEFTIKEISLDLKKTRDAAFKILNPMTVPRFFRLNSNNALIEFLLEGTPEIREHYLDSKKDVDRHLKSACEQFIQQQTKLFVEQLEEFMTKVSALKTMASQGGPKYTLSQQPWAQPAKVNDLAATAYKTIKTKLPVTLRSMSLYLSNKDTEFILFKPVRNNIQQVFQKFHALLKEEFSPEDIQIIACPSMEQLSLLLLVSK
UniProt Q96EV2: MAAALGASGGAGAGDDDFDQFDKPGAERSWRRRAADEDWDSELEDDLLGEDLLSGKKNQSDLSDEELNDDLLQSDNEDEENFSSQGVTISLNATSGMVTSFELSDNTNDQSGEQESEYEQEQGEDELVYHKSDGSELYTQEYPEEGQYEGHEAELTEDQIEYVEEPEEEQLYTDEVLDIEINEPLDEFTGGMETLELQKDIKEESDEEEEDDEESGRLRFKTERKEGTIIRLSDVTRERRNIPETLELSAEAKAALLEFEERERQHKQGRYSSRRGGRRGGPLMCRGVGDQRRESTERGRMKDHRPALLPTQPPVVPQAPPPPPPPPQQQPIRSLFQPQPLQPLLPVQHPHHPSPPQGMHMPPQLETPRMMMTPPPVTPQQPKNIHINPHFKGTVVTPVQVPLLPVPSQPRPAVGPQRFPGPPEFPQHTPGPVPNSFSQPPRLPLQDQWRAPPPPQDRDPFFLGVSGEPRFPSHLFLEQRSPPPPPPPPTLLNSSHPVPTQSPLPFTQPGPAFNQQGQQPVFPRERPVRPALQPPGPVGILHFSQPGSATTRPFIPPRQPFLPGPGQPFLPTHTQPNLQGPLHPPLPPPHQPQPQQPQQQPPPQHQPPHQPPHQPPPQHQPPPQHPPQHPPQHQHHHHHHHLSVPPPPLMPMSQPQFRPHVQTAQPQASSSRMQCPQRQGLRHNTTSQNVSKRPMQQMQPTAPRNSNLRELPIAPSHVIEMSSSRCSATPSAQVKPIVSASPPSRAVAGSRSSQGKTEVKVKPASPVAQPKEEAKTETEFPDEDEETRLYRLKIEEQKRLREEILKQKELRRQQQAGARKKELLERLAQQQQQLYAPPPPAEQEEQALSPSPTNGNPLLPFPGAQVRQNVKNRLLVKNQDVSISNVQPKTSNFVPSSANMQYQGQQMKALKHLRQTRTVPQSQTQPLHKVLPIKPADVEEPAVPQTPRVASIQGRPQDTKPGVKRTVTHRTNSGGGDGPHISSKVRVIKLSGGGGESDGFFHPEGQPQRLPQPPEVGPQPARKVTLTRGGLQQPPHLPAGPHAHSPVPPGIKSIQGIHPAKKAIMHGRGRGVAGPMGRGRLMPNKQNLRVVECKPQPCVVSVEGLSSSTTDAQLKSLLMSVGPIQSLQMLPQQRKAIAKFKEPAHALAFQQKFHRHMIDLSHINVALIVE
UniProt Q96K31: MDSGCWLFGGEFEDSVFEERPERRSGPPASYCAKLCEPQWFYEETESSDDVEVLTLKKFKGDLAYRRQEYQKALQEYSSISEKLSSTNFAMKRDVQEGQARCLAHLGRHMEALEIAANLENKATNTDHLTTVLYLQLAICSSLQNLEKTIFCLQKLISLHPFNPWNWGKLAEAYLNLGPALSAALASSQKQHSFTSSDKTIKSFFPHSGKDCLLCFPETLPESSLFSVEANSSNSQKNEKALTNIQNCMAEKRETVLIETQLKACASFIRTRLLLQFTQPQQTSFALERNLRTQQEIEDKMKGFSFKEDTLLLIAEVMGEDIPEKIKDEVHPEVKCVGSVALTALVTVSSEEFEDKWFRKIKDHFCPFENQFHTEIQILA
UniProt Q96BW9: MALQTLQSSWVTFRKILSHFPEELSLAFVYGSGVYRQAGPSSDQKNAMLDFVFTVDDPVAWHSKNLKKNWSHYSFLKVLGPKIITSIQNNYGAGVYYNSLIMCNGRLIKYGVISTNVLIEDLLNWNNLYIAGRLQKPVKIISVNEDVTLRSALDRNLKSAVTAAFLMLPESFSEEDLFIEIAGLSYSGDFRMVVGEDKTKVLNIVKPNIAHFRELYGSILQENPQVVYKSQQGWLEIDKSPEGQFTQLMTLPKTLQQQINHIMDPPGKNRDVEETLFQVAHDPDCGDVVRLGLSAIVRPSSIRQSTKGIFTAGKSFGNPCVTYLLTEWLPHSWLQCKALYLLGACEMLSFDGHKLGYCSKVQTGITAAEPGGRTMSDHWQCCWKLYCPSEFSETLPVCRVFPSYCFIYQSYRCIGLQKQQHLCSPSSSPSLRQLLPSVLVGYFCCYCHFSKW
UniProt Q96N16: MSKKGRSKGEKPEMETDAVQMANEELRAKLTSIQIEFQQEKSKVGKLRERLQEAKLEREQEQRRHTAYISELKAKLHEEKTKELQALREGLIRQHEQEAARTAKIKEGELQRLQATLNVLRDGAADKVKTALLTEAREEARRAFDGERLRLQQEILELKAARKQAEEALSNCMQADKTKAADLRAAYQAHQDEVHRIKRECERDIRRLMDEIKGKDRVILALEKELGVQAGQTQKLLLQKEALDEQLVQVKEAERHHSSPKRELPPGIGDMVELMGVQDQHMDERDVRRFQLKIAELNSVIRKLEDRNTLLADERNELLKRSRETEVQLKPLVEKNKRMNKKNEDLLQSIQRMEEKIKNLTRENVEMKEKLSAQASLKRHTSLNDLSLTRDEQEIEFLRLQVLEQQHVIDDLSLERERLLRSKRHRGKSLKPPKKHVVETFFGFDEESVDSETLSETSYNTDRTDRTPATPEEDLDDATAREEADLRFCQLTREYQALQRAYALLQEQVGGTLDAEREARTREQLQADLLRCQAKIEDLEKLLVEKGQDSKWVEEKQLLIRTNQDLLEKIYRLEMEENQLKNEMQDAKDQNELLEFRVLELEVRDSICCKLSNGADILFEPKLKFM
UniProt Q96QD9: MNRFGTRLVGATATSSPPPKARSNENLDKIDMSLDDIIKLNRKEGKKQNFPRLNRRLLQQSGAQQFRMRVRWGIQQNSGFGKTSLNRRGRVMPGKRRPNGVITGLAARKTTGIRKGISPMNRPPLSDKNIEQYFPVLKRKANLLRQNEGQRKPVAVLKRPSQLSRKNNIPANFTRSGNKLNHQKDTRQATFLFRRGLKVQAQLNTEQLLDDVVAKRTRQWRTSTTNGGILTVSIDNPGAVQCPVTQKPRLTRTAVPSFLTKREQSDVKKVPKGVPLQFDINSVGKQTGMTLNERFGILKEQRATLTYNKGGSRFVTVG
UniProt Q96C19: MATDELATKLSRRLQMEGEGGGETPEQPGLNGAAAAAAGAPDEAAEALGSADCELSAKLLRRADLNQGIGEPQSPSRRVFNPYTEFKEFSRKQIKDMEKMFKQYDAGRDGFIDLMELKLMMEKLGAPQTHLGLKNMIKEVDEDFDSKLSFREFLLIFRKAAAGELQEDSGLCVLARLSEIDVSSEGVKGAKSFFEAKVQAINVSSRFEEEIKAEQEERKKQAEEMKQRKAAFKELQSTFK
UniProt Q96IZ6: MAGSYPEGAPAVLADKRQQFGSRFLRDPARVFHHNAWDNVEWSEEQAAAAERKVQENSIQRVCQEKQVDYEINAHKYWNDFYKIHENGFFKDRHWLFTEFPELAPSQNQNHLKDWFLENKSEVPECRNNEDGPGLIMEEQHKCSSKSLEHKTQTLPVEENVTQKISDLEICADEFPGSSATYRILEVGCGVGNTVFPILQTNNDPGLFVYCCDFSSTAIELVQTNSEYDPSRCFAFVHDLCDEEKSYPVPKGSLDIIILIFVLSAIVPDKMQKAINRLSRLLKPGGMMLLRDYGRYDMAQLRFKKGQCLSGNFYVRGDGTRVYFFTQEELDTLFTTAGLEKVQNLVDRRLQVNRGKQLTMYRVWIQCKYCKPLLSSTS
UniProt Q96QR8: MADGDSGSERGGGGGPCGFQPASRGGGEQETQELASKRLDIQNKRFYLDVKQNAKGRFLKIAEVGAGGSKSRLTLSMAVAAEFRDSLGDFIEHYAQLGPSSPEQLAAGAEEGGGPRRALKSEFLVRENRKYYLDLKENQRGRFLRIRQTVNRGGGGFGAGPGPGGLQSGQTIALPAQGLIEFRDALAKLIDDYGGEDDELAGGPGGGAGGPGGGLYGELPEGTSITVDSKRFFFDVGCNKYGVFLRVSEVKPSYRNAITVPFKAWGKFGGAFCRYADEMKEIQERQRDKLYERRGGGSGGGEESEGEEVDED
UniProt Q96J02: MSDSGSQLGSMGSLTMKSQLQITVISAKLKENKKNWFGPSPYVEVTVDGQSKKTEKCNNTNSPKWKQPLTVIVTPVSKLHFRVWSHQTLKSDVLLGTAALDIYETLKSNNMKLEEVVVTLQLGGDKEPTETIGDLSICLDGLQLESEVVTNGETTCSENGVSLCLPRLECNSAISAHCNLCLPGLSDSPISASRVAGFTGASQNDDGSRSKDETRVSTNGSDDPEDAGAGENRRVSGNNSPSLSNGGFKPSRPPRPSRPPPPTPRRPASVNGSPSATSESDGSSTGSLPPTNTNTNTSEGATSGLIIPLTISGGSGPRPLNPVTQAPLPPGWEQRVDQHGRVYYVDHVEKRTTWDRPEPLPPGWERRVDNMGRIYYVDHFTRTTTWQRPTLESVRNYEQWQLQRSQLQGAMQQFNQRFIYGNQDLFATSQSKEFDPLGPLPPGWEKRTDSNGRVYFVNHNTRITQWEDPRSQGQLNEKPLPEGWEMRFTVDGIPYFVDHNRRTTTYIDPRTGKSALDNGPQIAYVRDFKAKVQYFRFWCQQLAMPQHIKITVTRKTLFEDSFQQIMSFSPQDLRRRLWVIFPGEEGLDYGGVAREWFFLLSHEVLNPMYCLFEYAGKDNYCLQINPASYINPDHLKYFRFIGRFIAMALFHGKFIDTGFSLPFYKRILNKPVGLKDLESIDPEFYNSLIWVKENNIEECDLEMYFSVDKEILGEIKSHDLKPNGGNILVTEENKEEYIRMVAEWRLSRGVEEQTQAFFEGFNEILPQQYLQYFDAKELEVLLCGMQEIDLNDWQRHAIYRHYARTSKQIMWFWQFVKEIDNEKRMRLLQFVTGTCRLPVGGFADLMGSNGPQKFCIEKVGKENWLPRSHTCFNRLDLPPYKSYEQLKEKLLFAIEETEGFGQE

What follows are targets tested with Nc1ncnc2c1ncn2[C@@H]1O[C@H](COP(=O)(O)OP(=O)(O)NP(=O)(O)O)[C@@H](O)[C@H]1O [adenylyl imidodiphosphate] (assay: NP40-soluble protein abundance relative to vehicle (solubility fold change) (ratio); higher = more soluble protein in presence of AMP-PNP). Details: concentration: 0.5mM.
How it was run: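 Jurkat crude lysate (Dounce-homogenised) was treated with eight concentrations from 0.1 to 10 mM for 10 min at room temperature, then 3 min at 37 °C. It was solubilised with 0.8% NP40 and benzonase (60 min, 4 °C) and ultracentrifuged, and the supernatant was TMT-labelled for LC-MS/MS. Intensities were vsn-normalised, and the value is the fold change against the NP40-processed vehicle per replicate, from three independent experiments.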

NTAN1 (UniProt Q96AB6) was tested. Which NP40-soluble protein abundance did it give?
The NP40-soluble protein abundance was 0.987 ± 0.012.

For UniProt Q96L50, which NP40-soluble protein abundance is on record?
Its NP40-soluble protein abundance is 0.977 ± 0.06.

How did the NP40-soluble protein abundance turn out when UniProt Q96L92 and related entries was run?
The NP40-soluble protein abundance was 0.97 ± 0.053.

With CHMP6 (UniProt Q96FZ7) as the target, how does the NP40-soluble protein abundance read?
Its NP40-soluble protein abundance is 1.02 ± 0.02.

For UniProt Q96B01 and related entries, which NP40-soluble protein abundance is on record?
The NP40-soluble protein abundance was 1.03 ± 0.023.

With COG3 (UniProt Q96JB2) as the target, how does the NP40-soluble protein abundance read?
Its NP40-soluble protein abundance is 1 ± 0.023.

Which NP40-soluble protein abundance does the source give for RBM33 (UniProt Q96EV2) here?
The NP40-soluble protein abundance was 1.02 ± 0.045.

For ZNF512B (UniProt Q96KM6), which NP40-soluble protein abundance is on record?
The NP40-soluble protein abundance was 1.02 ± 0.066.

Which NP40-soluble protein abundance does the source give for C8orf76 (UniProt Q96K31) here?
Its NP40-soluble protein abundance is 1.01 ± 0.021.

How did the NP40-soluble protein abundance turn out when UniProt Q96BW9 and related entries was run?
The NP40-soluble protein abundance was 0.984 ± 0.072.

For UniProt Q92997 and related entries, which NP40-soluble protein abundance is on record?
Its NP40-soluble protein abundance is 1.01 ± 0.038.

Which NP40-soluble protein abundance does the source give for UniProt Q96N16 and related entries here?
Its NP40-soluble protein abundance is 1.04 ± 0.086.

For UniProt Q96QD9 and related entries, which NP40-soluble protein abundance is on record?
The NP40-soluble protein abundance was 1.01 ± 0.038.

UniProt Q96ED9-2|Q96ED9 was tested. Which NP40-soluble protein abundance did it give?
Its NP40-soluble protein abundance is 1.01 ± 0.02.

EFHD2 (UniProt Q96C19) was tested. Which NP40-soluble protein abundance did it give?
Its NP40-soluble protein abundance is 0.95 ± 0.042.

Which NP40-soluble protein abundance does the source give for METTL2A (UniProt Q96IZ6) here?
Its NP40-soluble protein abundance is 1.01 ± 0.012.

UniProt Q96G23 was tested. Which NP40-soluble protein abundance did it give?
The NP40-soluble protein abundance was 1.01 ± 0.11.

For PURB (UniProt Q96QR8), which NP40-soluble protein abundance is on record?
Its NP40-soluble protein abundance is 1.01 ± 0.033.

UniProt Q96J02 and related entries was tested. Which NP40-soluble protein abundance did it give?
The NP40-soluble protein abundance was 1 ± 0.026.

With MUL1 (UniProt Q969V5) as the target, how does the NP40-soluble protein abundance read?
Its NP40-soluble protein abundance is 1.01 ± 0.014.
